Data taken from article PMC9996882.
Results are given in words; binding and its absence hold for the method and conditions named. In cells and extracts the contact can be indirect. Some binding calls cover weakened binding; strength is not graded here.

The chains behind the UniProt entries cited, without tags or fusion partners.
UniProt P61244: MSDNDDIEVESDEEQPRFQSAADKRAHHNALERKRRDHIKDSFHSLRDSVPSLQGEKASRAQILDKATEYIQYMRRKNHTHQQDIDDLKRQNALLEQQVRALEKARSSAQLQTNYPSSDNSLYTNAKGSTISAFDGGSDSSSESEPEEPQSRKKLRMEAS

Target: T1, Polycomb group RING finger protein 6 (PCGF6) (human (endogenous in human pRCC cell lines)) (UniProt Q9BYE7)
T1 sequence: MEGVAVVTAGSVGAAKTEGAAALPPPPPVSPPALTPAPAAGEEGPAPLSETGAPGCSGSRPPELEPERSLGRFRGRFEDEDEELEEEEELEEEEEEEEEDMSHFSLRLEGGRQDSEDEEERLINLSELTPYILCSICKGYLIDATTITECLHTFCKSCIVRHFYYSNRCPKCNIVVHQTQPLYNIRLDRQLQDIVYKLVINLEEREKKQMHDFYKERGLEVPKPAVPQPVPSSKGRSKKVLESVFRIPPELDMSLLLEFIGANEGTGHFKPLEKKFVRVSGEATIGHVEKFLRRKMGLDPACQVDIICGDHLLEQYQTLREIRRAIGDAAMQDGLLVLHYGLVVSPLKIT
Experiment: co-IP; antibody on magnetic beads (MCE) incubated with cell lysate, washed four times, eluted at 100 °C, read by Western blot; precipitating antibody not stated for Fig. 5g

Substance	binding
KDM5D (from UniProt Q9BY66 1-1539)	binds
MAX (from UniProt P61244 1-160)	binds
